Reference: the supplement of paper PMC3334620
Whole data set: some 33,000 sequences, median “E-score (-0.5 to 0.5)” near -0.0059, cut for the highest 2% near 0.26. This is one part of the list.

target: T1, Cin5 (UniProt P40917); test: PBM E-score (8-mer binding enrichment) (E-score (-0.5 to 0.5)); higher = stronger / more preferred TF binding; conditions: protein concentration: 100 nM; construct: GST-full length
T1 sequence: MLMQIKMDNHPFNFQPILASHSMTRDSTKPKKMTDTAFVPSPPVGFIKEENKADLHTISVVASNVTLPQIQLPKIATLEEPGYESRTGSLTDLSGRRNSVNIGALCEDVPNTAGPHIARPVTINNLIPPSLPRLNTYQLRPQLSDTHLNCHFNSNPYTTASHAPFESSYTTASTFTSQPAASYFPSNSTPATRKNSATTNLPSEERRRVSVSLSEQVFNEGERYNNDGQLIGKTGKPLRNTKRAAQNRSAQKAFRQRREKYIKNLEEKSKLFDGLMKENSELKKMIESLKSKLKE
Method in brief: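 GST-tagged yeast TFs (full-length or DNA-binding domain) were made by PURExpress in vitro transcription/translation and applied at about 100-200 nM to universal all-10-mer Agilent arrays. The arrays were made double-stranded by primer extension, on fresh or once-stripped slides. Bound protein was detected with fluorescent anti-GST, and scans were normalised with masliner. Each ungapped eight-base word, pooled with its reverse complement, received an E-score (modified Wilcoxon-Mann-Whitney statistic) from the Universal PBM Analysis Suite.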

First: ATAGTGGG
Second: ACCACGCG
The “PBM E-score” value of the first is higher: 0.0536 for the first, -0.0218 for the second.

Compared with GTCAACCA, ATGACGAC is higher in “PBM E-score” value: -0.158 for the first, 0.0658 for the second.

First: ACTAAACA
Second: AACCAACA
The “PBM E-score” value of the first is higher: 0.258 for the first, 0.0494 for the second.

Going from CGTTTATC to ATCATCCC, the “PBM E-score” value rises from 0.0462 to 0.103.

First: CGTCATTA
Second: ACCCCCTG
The “PBM E-score” value of the first is higher: 0.191 for the first, -0.454 for the second.

First: AGGTGAGC
Second: GCCTGACC
The “PBM E-score” value of the first is higher: -0.00093 for the first, -0.243 for the second.

Going from AGTGGTGC to ACTCACGG, the “PBM E-score” value rises from -0.125 to 0.08.

Going from ACCGTGGA to CAGTAAGA, the “PBM E-score” value rises from -0.116 to 0.0856.

Going from CCGACGAA to ACGTCTAG, the “PBM E-score” value falls from 0.0828 to -0.101.

First: CCTGGCTC
Second: GCCTAGGC
The “PBM E-score” value of the first is higher: -0.0734 for the first, -0.226 for the second.

First: AGTGACCG
Second: CACTCAGG
The “PBM E-score” value of the first is lower: -0.125 for the first, -0.0156 for the second.

Going from AACCCACC to AACATAAG, the “PBM E-score” value rises from 0.179 to 0.328.

Compared with GACACCGA, AGCAGCTA is higher in “PBM E-score” value: -0.0731 for the first, 0.0637 for the second.

Going from CCAATCGA to GATACTTA, the “PBM E-score” value falls from 0.00109 to -0.0873.

Going from ATCTACTA to AGTCTCAG, the “PBM E-score” value falls from 0.204 to -0.123.

Going from ATGTTAAC to AAGCCATG, the “PBM E-score” value falls from 0.136 to -0.149.

Going from ACTGTTTA to ATCTCGCG, the “PBM E-score” value rises from -0.0234 to 0.266.

Going from GAGCACAC to CTTCCAAG, the “PBM E-score” value rises from -0.0701 to -0.0346.

First: GTTGCATA
Second: CGAATCTA
The “PBM E-score” value of the first is higher: 0.0614 for the first, 0.0271 for the second.

Going from GATCCCCA to TGGCAGAA, the “PBM E-score” value rises from -0.0318 to 0.0418.

Going from CCCTGTTC to CAACTGGG, the “PBM E-score” value rises from -0.265 to -0.18.

Going from CGCCCGCA to CACGCTAA, the “PBM E-score” value falls from 0.13 to -0.0768.

Compared with AGCATGCC, GGAAGTCA is higher in “PBM E-score” value: -0.0948 for the first, 0.0165 for the second.

Compared with AGTGCCTG, GGGGTCAA is higher in “PBM E-score” value: -0.116 for the first, -0.0137 for the second.

First: AAACGAGA
Second: AATGCTTA
The “PBM E-score” value of the first is lower: 0.0715 for the first, 0.276 for the second.

Going from AGGCATGG to ACCCATAA, the “PBM E-score” value rises from -0.115 to 0.162.

Going from GCTGCCCC to CAGTTAAC, the “PBM E-score” value rises from -0.22 to 0.0905.

Compared with GCCCCCTA, AGATCGAG is higher in “PBM E-score” value: -0.376 for the first, 0.0463 for the second.

Going from CGTAAATA to ATTTTCCG, the “PBM E-score” value rises from 0.0783 to 0.329.

Compared with AATCTTGA, ATTCGTTA is higher in “PBM E-score” value: -0.0469 for the first, 0.146 for the second.

Going from CGGACTGC to AATGCATG, the “PBM E-score” value rises from -0.0755 to 0.183.

Going from ATTGAGCG to GGTTTCAA, the “PBM E-score” value rises from 0.0795 to 0.143.

Compared with GCCCGGTA, GTCGATCA is higher in “PBM E-score” value: -0.115 for the first, 0.0309 for the second.

Compared with ACTTTCTC, AATAGAAC is higher in “PBM E-score” value: -0.0512 for the first, 0.127 for the second.

First: CAGTTGAC
Second: CCGCGCCA
The “PBM E-score” value of the first is higher: 0.145 for the first, -0.0465 for the second.

First: GCGTTGAA
Second: AGCGCCCG
The “PBM E-score” value of the first is higher: 0.015 for the first, -0.14 for the second.

First: ACACCGTC
Second: CACGGCCC
The “PBM E-score” value of the first is higher: -0.175 for the first, -0.213 for the second.

Compared with CTTGGGAA, CTAGTAGA is higher in “PBM E-score” value: -0.0578 for the first, -0.00964 for the second.

First: AACTAGAA
Second: GTCAGGAC
The “PBM E-score” value of the first is higher: 0.0901 for the first, -0.116 for the second.

Compared with CCTAACCC, ACGATGCT is higher in “PBM E-score” value: -0.302 for the first, -0.00619 for the second.

First: ATTTTCGA
Second: GATGTCCC
The “PBM E-score” value of the first is lower: -0.0217 for the first, -0.00702 for the second.

Compared with GTGGTCTA, GCCTTAGC is lower in “PBM E-score” value: -0.107 for the first, -0.168 for the second.

First: AAACTCCC
Second: AAGATTAG
The “PBM E-score” value of the first is lower: -0.0302 for the first, 0.13 for the second.

First: GCAGGCCC
Second: CTTCAACC
The “PBM E-score” value of the first is lower: -0.388 for the first, 0.0799 for the second.

Going from CCCATTCC to ATATGGAC, the “PBM E-score” value rises from -0.153 to -0.0329.

First: ACCCAACG
Second: ATCCATAC
The “PBM E-score” value of the first is lower: 0.0778 for the first, 0.108 for the second.

Going from GGGAGTAC to ATGAAATA, the “PBM E-score” value rises from -0.129 to 0.18.

First: GGGTAGAA
Second: GCCCTGAA
The “PBM E-score” value of the first is lower: -0.112 for the first, -0.0267 for the second.

Compared with TGAACTCA, CCTAAAGC is lower in “PBM E-score” value: 0.00043 for the first, -0.108 for the second.

Going from AATCGCTA to CGAATCCG, the “PBM E-score” value rises from -0.0414 to -0.0137.

Compared with CACGCTCC, CAGATATA is higher in “PBM E-score” value: -0.28 for the first, 0.119 for the second.

Compared with ATTCGCGA, CCCCCCCG is lower in “PBM E-score” value: 0.0972 for the first, -0.447 for the second.

Compared with AAAAGCCT, ATAGTCAT is higher in “PBM E-score” value: -0.319 for the first, 0.0402 for the second.

Going from ATTCAACA to GAAGTCAA, the “PBM E-score” value rises from 0.102 to 0.124.

Going from AGCCTTTC to CCTTTAAC, the “PBM E-score” value rises from -0.229 to -0.0107.

Going from AATCCTTA to ATACACTA, the “PBM E-score” value rises from -0.0597 to 0.224.

First: AGCCTCCC
Second: GCCCTCGC
The “PBM E-score” value of the first is lower: -0.243 for the first, -0.0926 for the second.

First: GTGTATAA
Second: ATGTGGCG
The “PBM E-score” value of the first is lower: -0.00672 for the first, 0.0709 for the second.

Going from CCCGGGCC to AATAGGGT, the “PBM E-score” value rises from -0.278 to 0.122.

Going from CCGACGCC to CACACTCA, the “PBM E-score” value rises from -0.00092 to 0.138.

Compared with CCGACTGA, AGATCGGA is higher in “PBM E-score” value: -0.165 for the first, 0.157 for the second.

First: CCTGATTA
Second: AATTGTCC
The “PBM E-score” value of the first is higher: 0.252 for the first, 0.0822 for the second.

ACAGTACA and ACACAAAG are the same in “PBM E-score” value: 0.127 for the first, 0.127 for the second.

First: TCGAGCGA
Second: CAAGTATG
The “PBM E-score” value of the first is lower: 0.105 for the first, 0.128 for the second.

Going from CCGCACAC to CAAATCAA, the “PBM E-score” value rises from -0.18 to 0.231.

First: CCTTTTTC
Second: GTAGTTTA
The “PBM E-score” value of the first is lower: 0.0612 for the first, 0.131 for the second.

First: GAATAGCA
Second: AGACAGTG
The “PBM E-score” value of the first is higher: 0.0428 for the first, -0.0987 for the second.

Compared with AGCACAGA, GAAATCTA is higher in “PBM E-score” value: 0.133 for the first, 0.165 for the second.

Going from AGACTTTA to AGGGAATG, the “PBM E-score” value rises from -0.168 to -0.0715.

Going from ATGTCTGG to CCTGTCGC, the “PBM E-score” value falls from 0.0414 to -0.167.

Going from AGAATTCT to CAAGGACG, the “PBM E-score” value falls from 0.104 to -0.228.

Going from ACCTAACA to GCTGCACA, the “PBM E-score” value falls from 0.099 to -0.145.

Compared with ACTTGAGG, AAAAAAAC is higher in “PBM E-score” value: -0.114 for the first, 0.0551 for the second.

Going from ACCCCGTA to GAAACGAC, the “PBM E-score” value falls from 0.172 to 0.034.

Compared with CCCCTGCG, GACTGTGC is lower in “PBM E-score” value: -0.173 for the first, -0.276 for the second.

First: CCGACCCA
Second: CGCCGGCA
The “PBM E-score” value of the first is lower: -0.199 for the first, -0.0945 for the second.

First: ACGGGCCA
Second: CAAAGGCC
The “PBM E-score” value of the first is higher: -0.034 for the first, -0.227 for the second.

First: GTGACAGA
Second: ACTGAACG
The “PBM E-score” value of the first is higher: -0.0519 for the first, -0.168 for the second.

Going from AACAGTAC to CTTGAGGC, the “PBM E-score” value falls from 0.107 to -0.21.

Going from ATTGTACA to TTATGCAA, the “PBM E-score” value rises from 0.0322 to 0.186.

First: AAGTACGC
Second: ACGCTGGC
The “PBM E-score” value of the first is higher: -0.00407 for the first, -0.146 for the second.

Compared with ACGAGGAT, AGTTCCGC is higher in “PBM E-score” value: -0.124 for the first, 0.162 for the second.

First: AGCGTCCT
Second: CTCCTTAC
The “PBM E-score” value of the first is lower: -0.249 for the first, -0.123 for the second.

Compared with GTTTTTCA, ACATTAAC is higher in “PBM E-score” value: 0.00319 for the first, 0.146 for the second.

Compared with GCGGGCCC, ATTCCCAA is higher in “PBM E-score” value: -0.198 for the first, 0.166 for the second.

Compared with CCCTCTTC, ACTGCTCA is higher in “PBM E-score” value: -0.33 for the first, 0.0833 for the second.
